No constants are given. Whether binding was seen depends on the method and setting. Binding can be weak; no strength is given. Sequences can lack the tags named with a protein.
Biological target: CI-MPR cytosolic tail (CI-MPR_CT) (UniProt P11717)
Experiment: two-hybrid; yeast AH109; Gal4-AD fusions of μ subunits (pACT2) against Gal4-BD fusions of cytosolic tails (pBridge, pGBT9); growth on medium lacking leucine, tryptophan and histidine

Amino acid sequences for entries named in this document (tags omitted). A change or cut given only in a name is not applied to a line headed by its entry.
UniProt P11717: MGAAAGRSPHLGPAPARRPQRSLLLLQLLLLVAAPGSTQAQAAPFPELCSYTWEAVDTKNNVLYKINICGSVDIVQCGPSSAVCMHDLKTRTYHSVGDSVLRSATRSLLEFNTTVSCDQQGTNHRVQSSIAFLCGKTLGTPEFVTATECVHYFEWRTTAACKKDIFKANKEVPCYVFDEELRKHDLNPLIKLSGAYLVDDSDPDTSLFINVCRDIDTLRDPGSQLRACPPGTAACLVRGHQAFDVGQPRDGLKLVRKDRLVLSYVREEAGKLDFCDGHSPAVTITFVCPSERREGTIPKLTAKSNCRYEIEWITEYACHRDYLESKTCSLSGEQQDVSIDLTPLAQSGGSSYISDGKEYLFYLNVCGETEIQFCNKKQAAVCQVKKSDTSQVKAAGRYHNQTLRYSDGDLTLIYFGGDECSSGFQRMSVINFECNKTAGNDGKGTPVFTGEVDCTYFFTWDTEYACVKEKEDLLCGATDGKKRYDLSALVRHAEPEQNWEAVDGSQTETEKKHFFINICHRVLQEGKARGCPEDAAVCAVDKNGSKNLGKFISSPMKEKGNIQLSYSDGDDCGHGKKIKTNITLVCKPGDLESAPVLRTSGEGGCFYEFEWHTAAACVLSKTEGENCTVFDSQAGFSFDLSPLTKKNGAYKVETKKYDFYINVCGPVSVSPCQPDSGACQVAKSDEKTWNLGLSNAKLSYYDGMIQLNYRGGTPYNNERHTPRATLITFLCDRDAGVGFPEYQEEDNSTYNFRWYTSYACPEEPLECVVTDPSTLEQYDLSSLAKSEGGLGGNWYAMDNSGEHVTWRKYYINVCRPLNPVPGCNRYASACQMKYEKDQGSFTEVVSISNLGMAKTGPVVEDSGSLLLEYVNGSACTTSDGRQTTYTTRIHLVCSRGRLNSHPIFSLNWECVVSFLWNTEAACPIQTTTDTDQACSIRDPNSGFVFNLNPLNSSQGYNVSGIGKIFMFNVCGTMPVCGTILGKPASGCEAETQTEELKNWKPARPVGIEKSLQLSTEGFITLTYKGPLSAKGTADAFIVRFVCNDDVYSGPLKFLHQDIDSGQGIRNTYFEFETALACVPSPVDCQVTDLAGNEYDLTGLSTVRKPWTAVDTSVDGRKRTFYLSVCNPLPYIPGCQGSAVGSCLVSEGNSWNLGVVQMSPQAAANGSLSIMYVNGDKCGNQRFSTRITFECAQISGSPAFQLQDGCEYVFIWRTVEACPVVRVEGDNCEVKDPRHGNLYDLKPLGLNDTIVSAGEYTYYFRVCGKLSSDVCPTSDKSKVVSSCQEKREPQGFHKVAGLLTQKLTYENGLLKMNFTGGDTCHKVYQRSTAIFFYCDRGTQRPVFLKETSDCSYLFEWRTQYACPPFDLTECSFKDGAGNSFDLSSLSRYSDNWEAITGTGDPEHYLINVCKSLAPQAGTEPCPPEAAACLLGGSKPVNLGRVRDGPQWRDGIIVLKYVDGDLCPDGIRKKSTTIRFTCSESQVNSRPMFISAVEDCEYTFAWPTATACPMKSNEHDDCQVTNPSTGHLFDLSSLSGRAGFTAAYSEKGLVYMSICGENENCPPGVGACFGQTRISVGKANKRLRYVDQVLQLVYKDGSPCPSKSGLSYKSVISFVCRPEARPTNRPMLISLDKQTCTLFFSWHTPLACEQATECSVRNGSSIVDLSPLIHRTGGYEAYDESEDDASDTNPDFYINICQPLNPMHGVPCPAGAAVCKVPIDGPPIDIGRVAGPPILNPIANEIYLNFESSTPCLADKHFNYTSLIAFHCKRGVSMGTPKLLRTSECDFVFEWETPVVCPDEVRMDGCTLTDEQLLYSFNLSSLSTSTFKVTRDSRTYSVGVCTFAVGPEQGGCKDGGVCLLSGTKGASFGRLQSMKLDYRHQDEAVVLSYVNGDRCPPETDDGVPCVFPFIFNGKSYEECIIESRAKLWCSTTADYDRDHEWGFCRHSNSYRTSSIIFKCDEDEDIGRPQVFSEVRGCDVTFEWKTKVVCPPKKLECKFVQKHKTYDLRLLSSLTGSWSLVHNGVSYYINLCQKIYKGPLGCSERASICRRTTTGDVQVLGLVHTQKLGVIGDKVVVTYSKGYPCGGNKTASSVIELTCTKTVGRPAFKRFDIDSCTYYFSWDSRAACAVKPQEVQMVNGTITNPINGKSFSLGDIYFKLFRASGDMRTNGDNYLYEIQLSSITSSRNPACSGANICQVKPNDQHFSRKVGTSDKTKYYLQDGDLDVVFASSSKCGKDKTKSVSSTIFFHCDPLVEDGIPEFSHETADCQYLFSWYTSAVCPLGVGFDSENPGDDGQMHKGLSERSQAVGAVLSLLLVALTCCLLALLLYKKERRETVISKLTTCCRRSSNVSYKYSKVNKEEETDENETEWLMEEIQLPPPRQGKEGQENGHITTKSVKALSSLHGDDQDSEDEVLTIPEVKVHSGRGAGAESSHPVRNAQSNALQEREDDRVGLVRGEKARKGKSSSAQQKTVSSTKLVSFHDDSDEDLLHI

B1: C-terminal domain of human μ1B (residues 137–423), Gal4-AD fusion (domain or fragment, UniProt Q9Y6Q5 137-423)
chain: QQSNKLETGKSRVPPTVTNAVSWRSEGIKYKKNEVFIDVIESVNLLVNANGSVLLSEIVGTIKLKVFLSGMPELRLGLNDRVLFELTGRSKNKSVELEDVKFHQCVRLSRFDNDRTISFIPPDGDFELMSYRLSTQVKPLIWIESVIEKFSHSRVEIMVKAKGQFKKQSVANGVEISVPVPSDADSPRFKTSVGSAKYVPERNVVIWSIKSFPGGKEYLMRAHFGLPSVEKEEVEGRPPIGVKFEIPYFTVSGIQVRYMKIIEKSGYQALPWVRYITQSGDYQLRTS
  binding: binds

From article PMC10909764
